Paper PMC2680910
These are yes or no findings as the source states them, for the method shown. For part of these data: In cells and extracts the contact can be indirect. Some entries that bind do so weakly or less than the wild type.

The chains behind the UniProt entries cited, without tags or fusion partners. Where a name states a change or a piece, a line headed by the entry shows the natural chain unless it says otherwise.
UniProt Q8WUM4: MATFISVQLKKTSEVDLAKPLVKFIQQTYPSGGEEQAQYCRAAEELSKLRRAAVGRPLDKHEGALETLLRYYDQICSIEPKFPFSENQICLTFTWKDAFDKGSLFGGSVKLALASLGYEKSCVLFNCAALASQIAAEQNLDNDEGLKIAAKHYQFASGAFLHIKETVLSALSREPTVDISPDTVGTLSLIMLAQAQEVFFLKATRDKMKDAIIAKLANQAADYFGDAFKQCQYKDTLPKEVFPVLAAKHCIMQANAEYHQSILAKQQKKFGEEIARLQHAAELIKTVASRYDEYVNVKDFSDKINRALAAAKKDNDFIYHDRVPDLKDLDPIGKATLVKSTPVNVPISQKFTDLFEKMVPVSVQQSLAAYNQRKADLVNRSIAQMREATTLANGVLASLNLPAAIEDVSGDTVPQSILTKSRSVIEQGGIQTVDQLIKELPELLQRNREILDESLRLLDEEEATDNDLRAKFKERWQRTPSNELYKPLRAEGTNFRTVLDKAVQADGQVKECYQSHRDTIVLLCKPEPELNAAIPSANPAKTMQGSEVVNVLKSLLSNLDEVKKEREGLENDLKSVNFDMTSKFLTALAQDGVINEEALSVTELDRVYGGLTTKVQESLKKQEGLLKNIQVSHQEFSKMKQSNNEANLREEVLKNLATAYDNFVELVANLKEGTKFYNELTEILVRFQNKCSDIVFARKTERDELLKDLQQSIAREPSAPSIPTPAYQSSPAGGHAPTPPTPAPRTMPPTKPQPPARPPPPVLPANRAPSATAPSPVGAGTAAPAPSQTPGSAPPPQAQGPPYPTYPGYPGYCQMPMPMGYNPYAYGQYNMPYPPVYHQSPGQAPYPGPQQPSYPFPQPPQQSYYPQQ
UniProt Q7Z6J0: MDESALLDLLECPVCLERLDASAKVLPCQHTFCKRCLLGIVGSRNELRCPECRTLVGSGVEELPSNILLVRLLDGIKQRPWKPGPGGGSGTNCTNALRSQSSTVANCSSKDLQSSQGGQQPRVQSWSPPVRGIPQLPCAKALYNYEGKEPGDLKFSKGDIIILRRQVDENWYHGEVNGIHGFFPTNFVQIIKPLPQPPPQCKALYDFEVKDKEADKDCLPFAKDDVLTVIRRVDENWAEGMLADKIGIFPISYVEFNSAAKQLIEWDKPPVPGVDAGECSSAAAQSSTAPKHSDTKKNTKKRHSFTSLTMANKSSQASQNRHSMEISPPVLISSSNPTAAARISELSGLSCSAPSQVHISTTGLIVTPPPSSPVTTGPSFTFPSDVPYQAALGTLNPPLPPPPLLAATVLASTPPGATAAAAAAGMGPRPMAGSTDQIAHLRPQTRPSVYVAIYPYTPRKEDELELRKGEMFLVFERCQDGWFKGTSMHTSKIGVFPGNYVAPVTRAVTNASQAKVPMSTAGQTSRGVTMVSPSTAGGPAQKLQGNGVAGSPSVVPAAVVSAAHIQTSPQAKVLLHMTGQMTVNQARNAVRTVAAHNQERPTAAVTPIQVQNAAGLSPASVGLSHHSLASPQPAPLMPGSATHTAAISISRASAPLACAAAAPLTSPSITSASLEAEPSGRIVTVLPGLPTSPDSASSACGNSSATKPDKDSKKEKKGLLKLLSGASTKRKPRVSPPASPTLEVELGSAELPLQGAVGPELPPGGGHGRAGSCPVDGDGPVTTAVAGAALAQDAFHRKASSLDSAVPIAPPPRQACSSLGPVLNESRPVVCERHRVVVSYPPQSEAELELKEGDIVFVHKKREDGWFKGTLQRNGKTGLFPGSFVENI

How the values were obtained:
[1] = biological target: FLAG-tagged ALIX (ALG2-interacting protein X) (UniProt Q8WUM4); assay: co-IP; FLAG-ALIX and V5-POSH or V5-POSH V14A co-expressed in HEK 293 cells; lysis buffer 10 mM Tris HCl pH 7.5, 150 mM NaCl, 5 mM MgCl2, 1% octyl β-D-glucopyranoside; ALIX immunoprecipitated with anti-FLAG beads, washed three times, POSH detected by Western blot with anti-V5
[2] = biological target: GST-FLAG-ALIX-6xHIS (recombinant full-length ALIX) (UniProt Q8WUM4); assay: co-IP; bacterially expressed GST-Flag-ALIX and POSH (50 ng each) incubated in lysis buffer at 30°C for 45 min; ALIX immunoprecipitated with anti-FLAG beads, washed three times, Western blot with anti-POSH (PT1); both purified

Substance: V5-tagged POSH (plenty of SH3) (from UniProt Q7Z6J0 1-888)
- binding [1]: binds

Substance: V5-tagged POSH V14A (RING finger mutant) (from UniProt Q7Z6J0 1-888)
- binding [1]: binds

Substance: bacterially expressed maltose-binding protein (MBP)-POSH (from UniProt Q7Z6J0 1-888)
- binding [2]: binds
